No constants are given. Whether binding was seen depends on the method and setting. Binding seen in cells or lysates may run through a third protein. Some binding calls cover weakened binding; strength is not graded here.
Assays:
[1] = target: KLF4, endogenous in MDA-MB-231 cells (human (endogenous in MDA-MB-231)) (UniProt O43474); assay: proximity ligation; in situ PLA in MDA-MB-231 cells; rabbit anti-PARP (46D11) and mouse anti-KLF4 (F-8); control KLF4/rabbit IgG
[2] = target: KLF4, endogenous in MDA-MB-231 cells (human (endogenous in MDA-MB-231)) (UniProt O43474); assay: co-IP; endogenous proteins, MDA-MB-231 cytosolic and nuclear lysates; IP of the KLF4 complex and blot for PARP1; also with ethidium bromide added to the lysate

The chains behind the UniProt entries cited, without tags or fusion partners.
UniProt O43474: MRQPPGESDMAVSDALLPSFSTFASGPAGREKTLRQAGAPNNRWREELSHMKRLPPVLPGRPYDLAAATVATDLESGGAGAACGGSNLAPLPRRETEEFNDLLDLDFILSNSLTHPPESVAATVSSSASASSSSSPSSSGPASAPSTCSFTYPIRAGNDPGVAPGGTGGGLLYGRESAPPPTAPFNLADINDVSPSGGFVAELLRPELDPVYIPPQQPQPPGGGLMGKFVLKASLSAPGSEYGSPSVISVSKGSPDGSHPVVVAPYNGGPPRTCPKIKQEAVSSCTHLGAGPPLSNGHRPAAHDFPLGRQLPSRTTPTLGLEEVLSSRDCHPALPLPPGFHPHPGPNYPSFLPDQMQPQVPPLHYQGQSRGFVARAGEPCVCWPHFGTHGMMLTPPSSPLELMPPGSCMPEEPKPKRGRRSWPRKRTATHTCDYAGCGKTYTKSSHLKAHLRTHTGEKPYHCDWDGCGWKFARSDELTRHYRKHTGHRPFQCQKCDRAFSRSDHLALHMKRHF
UniProt P09874: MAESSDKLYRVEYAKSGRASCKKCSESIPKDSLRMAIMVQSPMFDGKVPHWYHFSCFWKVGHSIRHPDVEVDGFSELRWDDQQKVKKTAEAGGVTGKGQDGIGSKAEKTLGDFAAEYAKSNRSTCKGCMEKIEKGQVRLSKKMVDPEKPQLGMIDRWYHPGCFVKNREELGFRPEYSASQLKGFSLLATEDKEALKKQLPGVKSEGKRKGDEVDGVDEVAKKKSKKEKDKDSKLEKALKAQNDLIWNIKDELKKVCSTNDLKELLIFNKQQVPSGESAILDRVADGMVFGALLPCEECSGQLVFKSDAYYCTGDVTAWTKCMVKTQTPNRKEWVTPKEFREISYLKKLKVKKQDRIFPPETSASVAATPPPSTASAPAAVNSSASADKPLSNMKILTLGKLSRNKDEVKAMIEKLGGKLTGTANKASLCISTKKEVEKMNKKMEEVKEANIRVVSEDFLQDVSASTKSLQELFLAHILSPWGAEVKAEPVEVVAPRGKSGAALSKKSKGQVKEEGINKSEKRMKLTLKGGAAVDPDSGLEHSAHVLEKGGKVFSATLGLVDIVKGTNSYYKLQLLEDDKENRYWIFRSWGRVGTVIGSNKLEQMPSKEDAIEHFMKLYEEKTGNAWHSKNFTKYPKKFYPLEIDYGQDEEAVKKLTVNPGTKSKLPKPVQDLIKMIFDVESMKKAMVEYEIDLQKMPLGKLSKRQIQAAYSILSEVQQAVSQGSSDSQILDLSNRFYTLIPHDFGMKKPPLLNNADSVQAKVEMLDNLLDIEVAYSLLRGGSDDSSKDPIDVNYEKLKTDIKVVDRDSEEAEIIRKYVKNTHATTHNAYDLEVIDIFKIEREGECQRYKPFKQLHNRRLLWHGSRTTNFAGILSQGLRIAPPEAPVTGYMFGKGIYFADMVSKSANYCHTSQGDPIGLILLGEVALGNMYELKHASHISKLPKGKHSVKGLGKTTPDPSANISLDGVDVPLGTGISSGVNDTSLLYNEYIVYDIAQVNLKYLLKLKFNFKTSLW

binding [1]: binds
binding [2]: binds
Substance: PARP1, endogenous in MDA-MB-231 cells (from UniProt P09874 1-1014)

Reference: article PMC7721363
